Reference: PMC4257679
No constants are given. Whether binding was seen depends on the method and setting. Binding seen in cells or lysates may run through a third protein. Some results given as binding are weak or reduced against the parent protein; the word gives no strength.

Sequences of proteins named here, by UniProt entry; tags and fusion partners are left off.
UniProt P62629: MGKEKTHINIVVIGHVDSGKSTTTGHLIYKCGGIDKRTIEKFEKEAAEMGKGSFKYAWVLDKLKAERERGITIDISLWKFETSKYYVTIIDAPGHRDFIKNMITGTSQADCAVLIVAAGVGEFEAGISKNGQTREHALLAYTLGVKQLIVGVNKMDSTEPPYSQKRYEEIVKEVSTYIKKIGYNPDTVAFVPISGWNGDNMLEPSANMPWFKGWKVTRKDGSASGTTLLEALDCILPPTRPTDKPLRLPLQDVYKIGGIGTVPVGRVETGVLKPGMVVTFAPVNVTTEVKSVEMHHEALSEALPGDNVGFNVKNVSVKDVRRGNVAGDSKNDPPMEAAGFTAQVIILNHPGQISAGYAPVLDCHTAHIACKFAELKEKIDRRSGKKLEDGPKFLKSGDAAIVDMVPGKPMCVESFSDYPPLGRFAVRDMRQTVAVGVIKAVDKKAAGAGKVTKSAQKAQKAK
UniProt Q14152: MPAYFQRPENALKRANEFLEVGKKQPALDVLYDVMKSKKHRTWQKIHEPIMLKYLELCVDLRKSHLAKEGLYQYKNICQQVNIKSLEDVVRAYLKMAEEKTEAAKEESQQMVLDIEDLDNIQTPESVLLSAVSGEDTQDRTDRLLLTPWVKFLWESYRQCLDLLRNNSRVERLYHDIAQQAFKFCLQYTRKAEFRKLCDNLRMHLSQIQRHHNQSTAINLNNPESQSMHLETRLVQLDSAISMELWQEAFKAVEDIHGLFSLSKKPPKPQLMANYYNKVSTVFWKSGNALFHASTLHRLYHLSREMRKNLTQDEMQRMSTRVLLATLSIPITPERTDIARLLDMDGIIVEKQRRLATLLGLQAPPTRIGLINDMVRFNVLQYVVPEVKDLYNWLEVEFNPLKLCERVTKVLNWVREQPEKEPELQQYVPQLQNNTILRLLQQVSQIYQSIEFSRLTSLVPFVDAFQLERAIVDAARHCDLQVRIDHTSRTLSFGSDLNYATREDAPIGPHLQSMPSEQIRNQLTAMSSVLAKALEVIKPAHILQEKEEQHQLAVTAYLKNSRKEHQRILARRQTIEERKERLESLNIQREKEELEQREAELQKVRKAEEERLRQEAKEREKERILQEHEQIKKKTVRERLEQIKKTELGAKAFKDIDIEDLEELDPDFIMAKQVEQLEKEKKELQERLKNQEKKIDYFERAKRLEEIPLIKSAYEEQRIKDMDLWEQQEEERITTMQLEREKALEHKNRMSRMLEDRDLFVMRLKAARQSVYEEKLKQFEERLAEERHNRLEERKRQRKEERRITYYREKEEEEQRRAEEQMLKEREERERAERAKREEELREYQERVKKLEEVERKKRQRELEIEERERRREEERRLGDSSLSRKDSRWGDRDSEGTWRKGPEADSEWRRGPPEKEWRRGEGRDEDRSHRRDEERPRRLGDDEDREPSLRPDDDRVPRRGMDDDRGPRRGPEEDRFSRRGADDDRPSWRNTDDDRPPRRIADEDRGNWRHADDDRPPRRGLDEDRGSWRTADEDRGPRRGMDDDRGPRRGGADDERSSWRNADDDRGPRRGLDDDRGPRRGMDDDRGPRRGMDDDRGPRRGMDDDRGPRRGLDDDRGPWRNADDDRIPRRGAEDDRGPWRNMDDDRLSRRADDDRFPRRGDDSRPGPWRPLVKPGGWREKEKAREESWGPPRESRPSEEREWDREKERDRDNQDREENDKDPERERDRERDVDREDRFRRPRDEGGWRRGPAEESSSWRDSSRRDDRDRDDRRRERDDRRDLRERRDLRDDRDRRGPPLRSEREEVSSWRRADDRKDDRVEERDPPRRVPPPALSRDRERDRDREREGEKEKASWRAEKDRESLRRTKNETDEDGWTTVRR
UniProt P03418: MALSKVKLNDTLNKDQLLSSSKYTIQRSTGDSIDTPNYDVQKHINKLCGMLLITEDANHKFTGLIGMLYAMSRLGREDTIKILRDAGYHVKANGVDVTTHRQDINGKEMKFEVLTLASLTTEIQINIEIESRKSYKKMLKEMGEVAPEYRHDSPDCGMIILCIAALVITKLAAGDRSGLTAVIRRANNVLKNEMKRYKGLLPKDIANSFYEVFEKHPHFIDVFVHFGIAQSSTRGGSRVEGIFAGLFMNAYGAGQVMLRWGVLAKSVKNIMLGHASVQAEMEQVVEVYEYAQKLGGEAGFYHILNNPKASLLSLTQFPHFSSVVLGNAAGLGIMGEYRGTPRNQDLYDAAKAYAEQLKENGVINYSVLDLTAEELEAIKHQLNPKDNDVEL
UniProt P03421: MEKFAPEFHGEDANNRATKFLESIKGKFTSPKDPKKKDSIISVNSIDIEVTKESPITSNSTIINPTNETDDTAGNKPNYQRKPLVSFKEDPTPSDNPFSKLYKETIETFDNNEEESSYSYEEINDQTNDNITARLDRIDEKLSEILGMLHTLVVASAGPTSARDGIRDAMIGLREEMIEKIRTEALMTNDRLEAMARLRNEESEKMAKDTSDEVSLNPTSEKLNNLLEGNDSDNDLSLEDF

What was measured:
[1] = target: eEF1A of BSR-T7 cells (not stated (endogenous in BSR-T7 cells)) (UniProt P62629); assay: co-IP; lysates of BSR-T7 cells transfected with a plasmid for RSV N or RSV P alone (48 h); beads coupled to anti-eEF1A antibody or beads only; blot with anti-RSV polyclonal and anti-eEF1A
[2] = target: human transcription initiation factor eIF3A (human) (UniProt Q14152); assay: proximity ligation; Duolink II PLA in RSV-infected (MOI 1 pfu/cell) A549 cells fixed with acetone/methanol 24 h after infection; primary antibodies to eEF1A (or eIF3A as control) and to RSV N or P; foci counted per cell

Substance | binding [1] | binding [2]
RSV N expressed singly from a pTM plasmid (from UniProt P03418 1-391) | binds | 
RSV P expressed singly from a pTM plasmid (from UniProt P03421 1-241) | no binding | 
RSV nucleocapsid (N) protein, from RSV A2 infection (from UniProt P03418 1-391) |  | no binding
RSV phosphoprotein (P), from RSV A2 infection (from UniProt P03421 1-241) |  | no binding
